Laboratory results as given in paper PMC4858697, “Crystal structure of TRAF1 TRAF domain and its implications in the TRAF1-mediated intracellular signaling pathway” (Scientific Reports, 2016).
No constants are given. Whether binding was seen depends on the method and setting.

Experiments:
[1] = target: TRAF1 TRAF-C domain (residues 253 to 416), lacking the TRAF-N coiled-coil domain (human) (UniProt Q13077); experiment: SEC; Superdex 200 10/30 gel filtration in 20 mM sodium citrate pH 5.0, 1 M NaCl; both purified
[2] = target: TRAF1 TRAF-C domain (residues 253 to 416), lacking the TRAF-N coiled-coil domain (human) (UniProt Q13077); experiment: SEC-MALS; Superdex 200 HR 10/30 in 20 mM sodium citrate pH 5.0, 1 M NaCl, coupled to MALS and refractive index detectors; both purified

binding [1]: no binding
binding [2]: no binding
B1: TRAF1 TRAF-C domain (residues 253 to 416), lacking the TRAF-N coiled-coil domain (domain or fragment, UniProt Q13077 253-416)
chain: LEQSLRLMEEASFDGTFLWKITNVTRRCHESACGRTVSLFSPAFYTAKYGYKLCLRLYLNGDGTGKRTHLSLFIVIMRGEYDALLPWPFRNKVTFMLLDQNNREHAIDAFRPDLSSASFQRPQSETNVASGCPLFFPLSKLQSPKHAYVKDDTMFLKCIVETST
